Article PMC9788671

Amino acid sequences for entries named in this document (tags omitted).
UniProt Q9NZV8: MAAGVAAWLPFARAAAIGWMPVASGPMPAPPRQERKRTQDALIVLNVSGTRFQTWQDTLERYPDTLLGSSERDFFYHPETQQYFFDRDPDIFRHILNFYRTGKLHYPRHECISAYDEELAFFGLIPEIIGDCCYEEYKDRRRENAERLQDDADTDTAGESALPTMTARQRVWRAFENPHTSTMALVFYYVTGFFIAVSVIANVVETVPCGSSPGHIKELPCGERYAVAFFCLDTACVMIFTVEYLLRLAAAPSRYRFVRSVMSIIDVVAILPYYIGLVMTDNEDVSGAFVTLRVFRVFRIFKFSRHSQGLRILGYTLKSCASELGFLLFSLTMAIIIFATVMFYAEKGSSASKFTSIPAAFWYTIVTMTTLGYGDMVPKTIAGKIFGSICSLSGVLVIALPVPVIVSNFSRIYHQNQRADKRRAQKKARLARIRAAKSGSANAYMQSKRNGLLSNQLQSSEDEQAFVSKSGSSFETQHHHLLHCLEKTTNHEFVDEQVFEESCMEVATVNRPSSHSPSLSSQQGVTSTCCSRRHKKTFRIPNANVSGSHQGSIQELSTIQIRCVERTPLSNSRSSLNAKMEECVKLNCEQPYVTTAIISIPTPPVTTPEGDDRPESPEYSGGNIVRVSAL

B1: Stmn2 (protein, UniProt P21818 1-179)
chain: MAKTAMAYKEKMKELSMLSLICSCFYPEPRNINIYTYDDMEVKQINKRASGQAFELILKPPSPISEAPRTLASPKKKDLSLEEIQKKLEAAEGRRKSQEAQVLKQLAEKREHEREVLQKALEENNNFSKMAEEKLILKMEQIKENREANLAAIIERLQEKERHAAEVRRNKELQVELSG
B2: KChIP2 (protein, UniProt Q9JM59 1-270)
chain: MRGQGRKESLSESRDLDGSYDQLTGHPPGPSKKALKQRFLKLLPCCGPQALPSVSETLAAPASLRPHRPRPLDPDSVEDEFELSTVCHRPEGLEQLQEQTKFTRRELQVLYRGFKNECPSGIVNEENFKQIYSQFFPQGDSSNYATFLFNAFDTNHDGSVSFEDFVAGLSVILRGTIDDRLSWAFNLYDLNKDGCITKEEMLDIMKSIYDMMGKYTYPALREEAPREHVESFFQKMDRNKDGVVTIEEFIESCQQDENIMRSMQLFDNVI
B3: Bdh1 (protein, UniProt P29147 47-343)
chain: TSQADAASGKAVLVTGCDSGFGFSLAKHLHSKGFLVFAGCLLKDKGDAGVRELDSLKSDRLRTIQLNVCNSEEVEKAVETVRSGLKDPEKGMWGLVNNAGISTFGEVEFTSMETYKEVAEVNLWGTVRTTKSFLPLLRRAKGRVVNISSMLGRMANPARSPYCITKFGVEAFSDCLRYEMHPLGVKVSVVEPGNFIAATSLYSPERIQAIAKKMWDELPEVVRKDYGKKYFDEKIAKMETYCNSGSTDTSSVINAVTHALTAATPYTRYHPMDYYWWLRMQVMTHFPGAISDKIYIH
B4: Hsd17b12 (protein, UniProt Q6P7R8 1-312)
chain: MERALPAAGFLYWVGASTIAYLTLRASYSLFRAFQVWCVGNQAFVGPRLGEWAVVTGGTDGIGKSYAEELAKRGMKIVLISRSQDKLKEVSNNIKEKFNVETRTIAVDFSLDDIYDKIKTGLSGLEIGVLVNNVGMSYEYPEYFLEIPDLDNTIKKLININVLSICKVTRLVLPGMVERSKGVILNISSASGMLPVPLLTVYSATKAFVDFFSQCLHEEYKSKGIFVQSVLPFFVATKLAKIRKPTLDKPSAETFVKSAIKTVGLQTRTTGYVIHAIMGSINSILPRWIYFKTIMGFNKSLRNRYLKKTKKN
B5: Stmn3 (protein, UniProt Q9JHU6 1-180)
chain: MASTVSAYKEKMKELSVLSLICSCFYSQPHPNTIYQYGDMEVKQLDKRASGQSFEVILKSPSDLSPESPVLSSPPKRKDASLEELQKRLEAAEERRKTQEAQVLKQLAERREHEREVLHKALEENNNFSPLAEEKLNYKMELSKEIREAHLAALRERLREKELHAAEVRRNKEQREEMSG
B6: Kv4.3 (protein, UniProt Q62897 1-655)
chain: MAAGVAAWLPFARAAAIGWMPVANCPMPLAPADKNKRQDELIVLNVSGRRFQTWRTTLERYPDTLLGSTEKEFFFNEDTKEYFFDRDPEVFRCVLNFYRTGKLHYPRYECISAYDDELAFYGILPEIIGDCCYEEYKDRKRENAERLMDDNESENNQESMPSLSFRQTMWRAFENPHTSTLALVFYYVTGFFIAVSVITNVVETVPCGTVPGSKELPCGERYSVAFFCLDTACVMIFTVEYLLRLFAAPSRYRFIRSVMSIIDVVAIMPYYIGLVMTNNEDVSGAFVTLRVFRVFRIFKFSRHSQGLRILGYTLKSCASELGFLLFSLTMAIIIFATVMFYAEKGSSASKFTSIPASFWYTIVTMTTLGYGDMVPKTIAGKIFGSICSLSGVLVIALPVPVIVSNFSRIYHQNQRADKRRAQKKARLARIRVAKTGSSNAYLHSKRNGLLNEALELTGTPEEEHMGKTTSLIESQHHHLLHCLEKTTGLSYLVDDPLLSVRTSTIKNHEFIDEQMFEQNCMESSMQNYPSTRSPSLSSHSGLTTTCCSRRSKKTTHLPNSNLPATRLRSMQELSTIHIQGSEQPSLTTSRSSLNLKADDGLRPNCKTSQITTAIISIPTPPALTPEGESRPPPASPGPNTNIPSITSNVVKVSVL
B7: Kv4.1 (protein, UniProt D3ZYK3 1-650)
chain: MAAGVATWLPFARAAAVGWLPLAQQPLPPAPEVKASRGDEVLVVNVSGRRFETWKNTLDRYPDTLLGSSEKEFFYDAESGEYFFDRDPDMFRHVLNFYRTGRLHCPRQECIQAFDEELAFYGLVPELVGDCCLEEYRDRKKENAERLAEDEEAEQAGEGPALPAGSSLRQRLWRAFENPHTSTAALVFYYVTGFFIAVSVIANVVETIPCRGPARWPTKEQPCGDRFPTAFFCMDTACVLIFTGEYLLRLFAAPSRCRFLRSVMSLIDVVAILPYYIGLFVPKNDDVSGAFVTLRVFRVFRIFKFSRHSQGLRILGYTLKSCASELGFLLFSLTMAIIIFATVMFYAEKGTSKTNFTSIPAAFWYTIVTMTTLGYGDMVPSTIAGKIFGSICSLSGVLVIALPVPVIVSNFSRIYHQNQRADKRRAQQKVRLARIRLAKSGTTNAFLQYKQNGGLEDSGSGEGQMLCVRSRSAFEQQHHHLLHCLEKTTCHEFTDELTFSEALGAVSLGGRTSRSTSVSSQPMGPGSLFSSCCSRRGERRAIRLANSTASVSRGSMQELDTLAGLRRSPAPQSRSSLNAKPHDSLDLNCESRDFVAAIISIPTPPANTPDESQPSSPGGGGSGGMANTTLRNSSLATPCLLPETVKISSL
B8: Slc25a5 (protein, UniProt Q09073 1-298)
chain: MTDAAVSFAKDFLAGGVAAAISKTAVAPIERVKLLLQVQHASKQITADKQYKGIIDCVVRIPKEQGVLSFWRGNLANVIRYFPTQALNFAFKDKYKQIFLGGVDKRTQFWRYFAGNLASGGAAGATSLCFVYPLDFARTRLAADVGKAGAEREFKGLGDCLVKIYKSDGIKGLYQGFNVSVQGIIIYRAAYFGIYDTAKGMLPDPKNTHIFISWMIAQSVTAVAGLTSYPFDTVRRRMMMQSGRKGTDIMYTGTLDCWRKIARDEGGKAFFKGAWSNVLRGMGGAFVLVLYDEIKKYT
B9: Pc (protein, UniProt P52873 21-1178)
chain: TAPVASPNVRRLEYKPIKKVMVANRGEIAIRVFRACTELGIRTVAVYSEQDTGQMHRQKADEAYLIGRGLAPVQAYLHIPDIIKVAKENGVDAVHPGYGFLSERADFAQACQDAGVRFIGPSPEVVRKMGDKVEARAIAIAAGVPVVPGTNSPINSLHEAHEFSNTYGFPIIFKAAYGGGGRGMRVVHSYEELEENYTRAYSEALAAFGNGALFVEKFIEKPRHIEVQILGDQYGNILHLYERDCSIQRRHQKVVEIAPATHLDPQLRSRLTSDSVKLAKQVGYENAGTVEFLVDKHGKHYFIEVNSRLQVEHTVTEEITDVDLVHAQIHVSEGRSLPDLGLRQENIRINGCAIQCRVTTEDPARSFQPDTGRIEVFRSGEGMGIRLDNASAFQGAVISPHYDSLLVKVIAHGKDHPTAATKMSRALAEFRVRGVKTNIPFLQNVLNNQQFLAGIVDTQFIDENPELFQLRPAQNRAQKLLHYLGHVMVNGPTTPIPVKVSPSPVDPIVPVVPIGPPPAGFRDILLREGPEGFARAVRNHQGLLLMDTTFRDAHQSLLATRVRTHDLKKIAPYVAHNFNNLFSIENWGGATFDVAMRFLYECPWRRLQELRELIPNIPFQMLLRGANAVGYTNYPDNVVFKFCEVAKENGMDVFRIFDSLNYLPNMLLGMEAAGSAGGVVEAAISYTGDVADPSRTKYSLEYYMGLAEELVRAGTHILCIKDMAGLLKPAACTMLVSSLRDRFPDLPLHIHTHDTSGSGVAAMLACAQAGADVVDVAVDSMSGMTSQPSMGALVACTKGTPLDTEVPLERVFDYSEYWEGARGLYAAFDCTATMKSGNSDVYENEIPGGQYTNLHFQAHSMGLGSKFKEVKKAYVEANQMLGDLIKVTPSSKIVGDLAQFMVQNGLSRAEAEAQAEELSFPRSVVEFLQGYIGIPHGGFPEPFRSKVLKDLPRIEGRPGASLPPLNLKELEKDLIDRHGEEVTPEDVLSAAMYPDVFAQFKDFTATFGPLDSLNTRLFLQGPKIAEEFEVELERGKTLHIKALAVSDLNRAGQRQVFFELNGQLRSILVKDTQAMKEMHFHPKALKDVKGQIGAPMPGKVIDVKVAAGAKVVKGQPLCVLSAMKMETVVTSPMEGTIRKVHVTKDMTLEGDDLILEIE
B10: Clasp2 (protein, UniProt Q99JD4 1-1286)
chain: MRRLICKRICDYKSFDDEESVDGNRPSSAASAFKVPAPKTPGNPVNSARKPGSAGGPKAGGTSKEGGAGAVDEDDFIKAFTDVPSIQIYSSRELEETLNKIREILSDDKHDWDQRANALKKIRSLLVAGAAQYDCFFQHLRLLDGALKLSAKDLRSQVVREACITVAHLSTVLGNKFDHGAEAIVPTLFNLVPNSAKVMATSGCAAIRFIIRHTHVPRLIPLITSNCTSKSVPVRRRSFEFLDLLLQEWQTHSLERHAAVLVETIKKGIHDADAEARVEARKTYMGLRNHFPGEAETLYNSLEPSYQKSLQTYLKSSGSVASLPQSDRSSSSSQESLNRPFSSKWSTANPSAVAGRVSVGGSKASPLPGSLQRSRSDIDVNAAAGAKAHHAAGQAVRSGRLGAGALNPGSYASLEDTSDKMDGTASEDGRVRAKLSTPLVAVGNAKTDSRGRSRTKMVSQSQPGSRSGSPGRVLTTTALSTVSSGAQRILVNSASAQKRSKIPRSQGCSREASPSRLSVARSSRIPRPSVSQGCSREASRESSRDTSPVRSFQPLGPGYGMSQSSRLSSSVSAMRVLNTGSDVEEAVADALLLGDIRTKKKPARRRYESYGMHSDDDANSDASSACSERSYSSRNGSIPTYMRQTEDVAEVLNRCASSNWSERKEGLLGLQNLLKNQRTLSRVELKRLCEIFTRMFADPHGKVFSMFLETLVDFIQVHKDDLQDWLFVLLTQLLKKMGADLLGSVQAKVQKALDVTRESFPNDLQFNILMRFTVDQTQTPSLKVKVAILKYIETLAKQMDPGDFINSSETRLAVSRVITWTTEPKSSDVRKAAQSVLISLFELNTPEFTMLLGALPKTFQDGATKLLHNHLRNTGNGTQSSMGSPLTRPTPRSPANWSSPLTSPTNTSQNTLSPSAFDYDTENMNSEDIYSSLRGVTEAIQNFSFRSQEDMSEPLKRDPKKEDGDTVCSGPGMSDPRAGGDAPDSSQPALDNKASLLHSVPLHSSPRSRDYNPYNYSDSISPFNKSALKEAMFDDDADQFPDDLSLDHSDLVAELLKELSNHNERIEERKIALYELMKLTQEESFSVWDEHFKTILLLLLETLGDKEPTIRALALKVLKEILRHQPARFKNYAELTVMKTLEAHKDPHKEVVRSAEEAASVLATSISPEQCIKVLCPIIQTADYPINLAAIKMQTKVIERVSKETLNLLLPEIMPGLIQGYDNSESSVRKACVFCLVAVHAVIGDELKPHLSQLTGSKMKLLNLYIKRAQTGSAGADPTTDVSGQS

Biological target: TAP-Kv4.2 (human) (UniProt Q9NZV8)
Test: affinity purification with mass spectrometry; TAP-Kv4.2 expressed by lentivirus in rat hippocampal neurons, harvested at DIV14; weak lysis buffer of the kit (0.1% NP-40); streptavidin resin, then calmodulin resin; gel cut into high and low molecular weight fragments; no MS of the control sample

binding | Binder
binds | B1
binds | B2
binds | B3
binds | B4
binds | B5
binds | B6
binds | B7
binds | B8
binds | B9
binds | B10

Biological target: TAP-Kv4.2 (human) (UniProt Q9NZV8)
Test: affinity purification with mass spectrometry; TAP-Kv4.2 expressed by lentivirus in rat hippocampal neurons, harvested at DIV14; strong lysis buffer (1% Triton X-100, 0.5% deoxycholate in PBS, pH 7.4); streptavidin resin, then calmodulin resin; gel cut into high and low molecular weight fragments; no MS of the control sample

binding | Binder
binds | B1
binds | B2
binds | B3
binds | B4
binds | B5
binds | B6
binds | B7
binds | B8
binds | B9
binds | B10

No constants are given. Whether binding was seen depends on the method and setting. Binding seen in cells or lysates may run through a third protein. These calls come from enrichment with a bait or labelling near it, and not all partners need be listed.
